Test results taken from paper PMC12209456, “Serine/threonine/tyrosine kinase 1 drives pancreatic carcinogenesis via GSK3β sequestration-mediated Wnt/β-catenin pathway hyperactivation” (Signal Transduction and Targeted Therapy, 2025).
No constants are given. Whether binding was seen depends on the method and setting. In cells and extracts the contact can be indirect. A yes stands for co-enrichment or nearness to the bait. Other partners may have been found. Sequences can lack the tags named with a protein.

Amino acid sequences for entries named in this document (tags omitted).
UniProt P35222: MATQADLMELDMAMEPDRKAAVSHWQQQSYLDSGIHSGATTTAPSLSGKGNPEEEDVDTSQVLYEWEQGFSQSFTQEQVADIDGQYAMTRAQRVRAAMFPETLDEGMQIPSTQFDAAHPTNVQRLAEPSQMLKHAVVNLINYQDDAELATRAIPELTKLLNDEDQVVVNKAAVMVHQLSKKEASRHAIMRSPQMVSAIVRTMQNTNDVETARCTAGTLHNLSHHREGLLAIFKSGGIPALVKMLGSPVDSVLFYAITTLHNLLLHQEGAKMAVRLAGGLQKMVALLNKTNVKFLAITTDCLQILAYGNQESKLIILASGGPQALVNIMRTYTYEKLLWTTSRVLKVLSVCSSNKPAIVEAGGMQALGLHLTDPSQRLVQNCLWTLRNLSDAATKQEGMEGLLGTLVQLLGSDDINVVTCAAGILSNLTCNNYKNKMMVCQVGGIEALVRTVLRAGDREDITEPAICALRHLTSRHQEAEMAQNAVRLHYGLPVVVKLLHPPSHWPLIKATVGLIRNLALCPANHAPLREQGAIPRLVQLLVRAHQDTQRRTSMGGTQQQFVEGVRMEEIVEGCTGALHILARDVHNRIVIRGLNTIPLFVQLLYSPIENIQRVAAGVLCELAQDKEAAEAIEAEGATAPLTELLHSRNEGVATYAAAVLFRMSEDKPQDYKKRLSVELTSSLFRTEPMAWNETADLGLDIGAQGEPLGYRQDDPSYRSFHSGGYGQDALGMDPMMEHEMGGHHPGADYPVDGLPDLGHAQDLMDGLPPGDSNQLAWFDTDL
UniProt P49841: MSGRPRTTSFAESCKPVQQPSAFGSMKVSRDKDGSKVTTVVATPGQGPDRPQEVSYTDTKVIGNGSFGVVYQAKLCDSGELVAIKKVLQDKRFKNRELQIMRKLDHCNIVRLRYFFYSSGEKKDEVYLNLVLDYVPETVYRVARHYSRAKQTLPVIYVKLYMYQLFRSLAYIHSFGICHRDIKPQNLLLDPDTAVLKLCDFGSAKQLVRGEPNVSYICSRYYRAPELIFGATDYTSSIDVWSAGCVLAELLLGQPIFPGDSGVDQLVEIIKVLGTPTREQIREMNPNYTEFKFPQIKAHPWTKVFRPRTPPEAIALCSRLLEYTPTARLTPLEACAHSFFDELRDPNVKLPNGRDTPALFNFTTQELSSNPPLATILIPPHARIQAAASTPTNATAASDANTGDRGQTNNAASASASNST

Molecular target: T1, Flag-tagged STYK1 (UniProt Q6J9G0)
T1 sequence: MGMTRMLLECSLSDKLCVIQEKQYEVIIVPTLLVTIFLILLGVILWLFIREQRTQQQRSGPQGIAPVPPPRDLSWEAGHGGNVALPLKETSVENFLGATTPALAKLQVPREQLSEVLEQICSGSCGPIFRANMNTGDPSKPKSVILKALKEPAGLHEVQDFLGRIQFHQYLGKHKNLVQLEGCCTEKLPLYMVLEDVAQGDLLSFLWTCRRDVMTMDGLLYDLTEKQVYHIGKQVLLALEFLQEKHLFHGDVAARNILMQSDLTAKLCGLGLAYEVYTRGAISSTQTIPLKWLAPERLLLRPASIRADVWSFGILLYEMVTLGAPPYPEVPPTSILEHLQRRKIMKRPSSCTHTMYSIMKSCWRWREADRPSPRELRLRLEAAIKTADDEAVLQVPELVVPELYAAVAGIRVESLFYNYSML
Experiment: affinity purification with mass spectrometry; Flag-affinity purification of STYK1-associated complexes from transfected HEK293T cells, silver staining, LC-MS/MS

Substance	binding
β-catenin, endogenous (from UniProt P35222 1-781)	binds
Glycogen synthase kinase 3β (GSK3β), endogenous (from UniProt P49841 1-420)	binds
